# These are yes or no findings as the source states them, for the method shown. Binding seen in cells or lysates may run through a third protein. Some binding calls cover weakened binding; strength is not graded here.
# Target: T1, TRIM33 in the co-IP in HEK293 cells (UniProt Q9UPN9)
# T1 sequence: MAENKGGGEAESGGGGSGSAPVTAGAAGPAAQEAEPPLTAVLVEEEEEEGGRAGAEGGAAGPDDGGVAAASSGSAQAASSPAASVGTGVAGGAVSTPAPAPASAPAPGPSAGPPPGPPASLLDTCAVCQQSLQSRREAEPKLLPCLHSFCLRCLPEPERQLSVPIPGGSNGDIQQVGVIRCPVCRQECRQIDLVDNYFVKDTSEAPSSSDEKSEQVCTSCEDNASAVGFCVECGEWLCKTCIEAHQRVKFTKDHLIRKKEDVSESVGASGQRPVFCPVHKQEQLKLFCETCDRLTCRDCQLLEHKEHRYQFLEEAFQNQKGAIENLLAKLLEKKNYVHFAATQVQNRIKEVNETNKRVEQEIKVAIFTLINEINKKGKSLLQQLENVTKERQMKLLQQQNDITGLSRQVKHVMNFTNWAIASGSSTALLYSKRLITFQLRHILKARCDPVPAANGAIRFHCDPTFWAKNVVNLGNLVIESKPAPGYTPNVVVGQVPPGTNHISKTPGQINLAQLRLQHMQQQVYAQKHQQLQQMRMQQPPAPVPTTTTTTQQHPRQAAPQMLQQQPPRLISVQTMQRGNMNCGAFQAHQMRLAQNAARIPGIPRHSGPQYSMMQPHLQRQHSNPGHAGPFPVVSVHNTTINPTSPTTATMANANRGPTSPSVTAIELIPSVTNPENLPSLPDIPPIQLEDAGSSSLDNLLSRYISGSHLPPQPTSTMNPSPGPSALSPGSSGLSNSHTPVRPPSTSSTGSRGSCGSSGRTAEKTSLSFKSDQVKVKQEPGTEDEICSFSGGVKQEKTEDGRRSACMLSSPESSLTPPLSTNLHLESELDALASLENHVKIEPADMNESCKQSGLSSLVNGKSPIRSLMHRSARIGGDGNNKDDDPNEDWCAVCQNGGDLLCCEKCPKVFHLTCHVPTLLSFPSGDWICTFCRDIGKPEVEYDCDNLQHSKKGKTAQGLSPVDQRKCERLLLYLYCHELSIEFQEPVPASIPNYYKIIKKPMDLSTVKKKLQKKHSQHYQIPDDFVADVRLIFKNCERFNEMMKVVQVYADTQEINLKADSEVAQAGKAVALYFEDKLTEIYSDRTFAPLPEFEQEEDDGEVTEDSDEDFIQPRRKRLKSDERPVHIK
# Test: co-IP; HEK293 cell lysates incubated with the corresponding antibodies and Protein A/G beads at 4 °C overnight; beads washed with PBST; western blot
substance,measurement,value
P53 in the co-IP in HEK293 cells (from UniProt P04637 1-393),binding,binds
